The values that follow come from publication PMC12070812.

The chains behind the UniProt entries cited, without tags or fusion partners. Where a name states a change or a piece, a line headed by the entry shows the natural chain unless it says otherwise.
UniProt Q9VUH8: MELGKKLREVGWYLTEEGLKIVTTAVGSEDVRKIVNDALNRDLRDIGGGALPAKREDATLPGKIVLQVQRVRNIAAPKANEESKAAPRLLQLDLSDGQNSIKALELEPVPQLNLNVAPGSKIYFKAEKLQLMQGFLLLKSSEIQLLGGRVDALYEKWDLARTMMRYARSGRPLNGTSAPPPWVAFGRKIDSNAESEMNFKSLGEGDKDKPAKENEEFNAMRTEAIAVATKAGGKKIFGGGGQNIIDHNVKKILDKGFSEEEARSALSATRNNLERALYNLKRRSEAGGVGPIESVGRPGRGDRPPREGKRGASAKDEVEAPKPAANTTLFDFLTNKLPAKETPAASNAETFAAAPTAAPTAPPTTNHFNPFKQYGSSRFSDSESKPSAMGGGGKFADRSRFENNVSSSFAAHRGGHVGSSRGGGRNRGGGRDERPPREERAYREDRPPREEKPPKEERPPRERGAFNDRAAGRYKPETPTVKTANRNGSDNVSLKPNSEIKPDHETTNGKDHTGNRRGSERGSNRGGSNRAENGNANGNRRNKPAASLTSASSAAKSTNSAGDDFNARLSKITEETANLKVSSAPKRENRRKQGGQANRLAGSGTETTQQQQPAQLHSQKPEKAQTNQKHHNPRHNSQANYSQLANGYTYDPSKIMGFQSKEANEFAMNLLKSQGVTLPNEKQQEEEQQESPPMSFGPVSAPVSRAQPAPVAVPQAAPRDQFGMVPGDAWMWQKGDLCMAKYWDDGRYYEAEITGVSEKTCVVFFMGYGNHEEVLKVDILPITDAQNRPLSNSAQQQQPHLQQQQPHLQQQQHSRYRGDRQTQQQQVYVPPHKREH
UniProt Q9VV73: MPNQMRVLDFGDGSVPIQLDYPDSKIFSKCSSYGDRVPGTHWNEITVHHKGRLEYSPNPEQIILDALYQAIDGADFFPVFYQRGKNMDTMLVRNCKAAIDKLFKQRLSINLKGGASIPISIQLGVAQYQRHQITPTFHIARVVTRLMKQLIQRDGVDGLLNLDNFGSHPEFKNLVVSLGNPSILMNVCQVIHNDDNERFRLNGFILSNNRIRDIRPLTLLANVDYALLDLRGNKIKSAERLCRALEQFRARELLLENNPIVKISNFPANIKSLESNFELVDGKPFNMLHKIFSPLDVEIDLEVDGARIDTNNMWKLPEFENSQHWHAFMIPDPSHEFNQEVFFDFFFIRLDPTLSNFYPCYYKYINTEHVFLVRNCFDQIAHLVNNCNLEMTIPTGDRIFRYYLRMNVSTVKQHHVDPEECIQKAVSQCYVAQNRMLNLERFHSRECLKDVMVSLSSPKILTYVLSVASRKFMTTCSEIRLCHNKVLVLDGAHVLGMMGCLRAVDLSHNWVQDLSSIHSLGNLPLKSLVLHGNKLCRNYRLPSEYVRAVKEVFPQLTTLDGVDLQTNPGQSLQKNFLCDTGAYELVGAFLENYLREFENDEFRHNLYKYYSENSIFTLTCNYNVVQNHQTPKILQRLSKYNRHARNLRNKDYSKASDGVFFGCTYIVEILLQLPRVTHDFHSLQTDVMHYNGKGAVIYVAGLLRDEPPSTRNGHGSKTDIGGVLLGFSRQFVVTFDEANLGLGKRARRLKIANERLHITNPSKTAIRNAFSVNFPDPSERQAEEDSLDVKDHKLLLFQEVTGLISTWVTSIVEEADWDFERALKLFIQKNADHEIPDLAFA
UniProt Q9U1H9: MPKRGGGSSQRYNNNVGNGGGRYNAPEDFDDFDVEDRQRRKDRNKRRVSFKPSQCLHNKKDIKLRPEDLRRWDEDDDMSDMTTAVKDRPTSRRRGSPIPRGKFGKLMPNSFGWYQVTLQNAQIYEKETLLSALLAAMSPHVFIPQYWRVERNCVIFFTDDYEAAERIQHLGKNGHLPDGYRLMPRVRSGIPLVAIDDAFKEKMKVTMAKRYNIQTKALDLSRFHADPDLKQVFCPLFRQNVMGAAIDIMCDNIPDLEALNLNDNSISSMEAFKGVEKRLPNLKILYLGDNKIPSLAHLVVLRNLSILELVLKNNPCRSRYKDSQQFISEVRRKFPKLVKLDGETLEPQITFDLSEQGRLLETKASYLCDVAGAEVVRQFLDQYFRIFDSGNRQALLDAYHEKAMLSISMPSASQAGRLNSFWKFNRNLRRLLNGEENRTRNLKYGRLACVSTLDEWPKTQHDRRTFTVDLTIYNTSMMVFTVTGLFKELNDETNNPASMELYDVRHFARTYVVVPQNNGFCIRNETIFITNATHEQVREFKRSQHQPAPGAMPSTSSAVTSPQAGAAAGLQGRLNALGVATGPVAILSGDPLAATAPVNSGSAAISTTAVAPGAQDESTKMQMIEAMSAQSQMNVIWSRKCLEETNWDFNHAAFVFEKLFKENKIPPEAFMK

No constants are given. Whether binding was seen depends on the method and setting. In cells and extracts the contact can be indirect. A yes stands for co-enrichment or nearness to the bait. Other partners may have been found. For part of these data: A no says only that the protein was not detected with the bait.

The target of assay [1] is TDRD3 (Drosophila) (Drosophila (endogenous in fly ovaries and OSS cells)) (UniProt Q9VUH8). The experiment in a line: affinity purification with mass spectrometry; reciprocal TDRD3 and Piwi IP from OSS cell lysates (Ripa buffer); IP buffer 20mM Hepes pH 7.9, 200mM NaCl, 0.1% NP40, 4 hours at 4 C; MS of the eluates.
For assay [2], the target named is FLAG-tagged Top3b (Flag-Top3b), Drosophila topoisomerase 3b (Drosophila). The experiment in a line: affinity purification with mass spectrometry; FLAG IP from ovary lysates of Flag-Top3b flies, mock IP from control flies lacking Flag-Top3b; silver staining and MS, two replicates; hits with >2-fold unique peptide enrichment in both replicates.

For Nxf2 (from UniProt Q9VV73 1-841), the binding result in assay [1] was “binds”.

On to Nxf1 (from UniProt Q9U1H9 1-672), for which, in assay [1], the binding entry is “binds”.

B1: Piwi (protein, UniProt Q9VKM1 1-843)
chain: MADDQGRGRRRPLNEDDSSTSRGSGDGPRVKVFRGSSSGDPRADPRIEASRERRALEEAPRREGGPTERKPWGDQYDYLNTRPAELVSKKGTDGVPVMLQTNFFRLKTKPEWRIVHYHVEFEPSIENPRVRMGVLSNHANLLGSGYLFDGLQLFTTRKFEQEITVLSGKSKLDIEYKISIKFVGFISCAEPRFLQVLNLILRRSMKGLNLELVGRNLFDPRAKIEIREFKMELWPGYETSIRQHEKDILLGTEITHKVMRTETIYDIMRRCSHNPARHQDEVRVNVLDLIVLTDYNNRTYRINDVDFGQTPKSTFSCKGRDISFVEYYLTKYNIRIRDHNQPLLISKNRDKALKTNASELVVLIPELCRVTGLNAEMRSNFQLMRAMSSYTRMNPKQRTDRLRAFNHRLQNTPESVKVLRDWNMELDKNVTEVQGRIIGQQNIVFHNGKVPAGENADWQRHFRDQRMLTTPSDGLDRWAVIAPQRNSHELRTLLDSLYRAASGMGLRIRSPQEFIIYDDRTGTYVRAMDDCVRSDPKLILCLVPNDNAERYSSIKKRGYVDRAVPTQVVTLKTTKNRSLMSIATKIAIQLNCKLGYTPWMIELPLSGLMTIGFDIAKSTRDRKRAYGALIASMDLQQNSTYFSTVTECSAFDVLANTLWPMIAKALRQYQHEHRKLPSRIVFYRDGVSSGSLKQLFEFEVKDIIEKLKTEYARVQLSPPQLAYIVVTRSMNTRFFLNGQNPPPGTIVDDVITLPERYDFYLVSQQVRQGTVSPTSYNVLYSSMGLSPEKMQKLTYKMCHLYYNWSGTTRVPAVCQYAKKLATLVGTNLHSIPQNALEKKFYYL
B1: the binding result in assay [2] and in assay [1] was “binds” in each case.

B2: SpnE (protein, UniProt Q9VF26 1-1434)
chain: MDQEVMDFFDFSKELKRVAAAPQGYISSDPRLMATKFKSSEVPNRELIGTDYVSKIVAKEKCLLNGTLLNEQPQGKRIRTLDDLDTDDEGEETEIRRDDEYYKKFRFNLNRDKNLSIYAKREEILAAINAHPVVIIKGETGCGKTTQVPQYILDEAYKSGKYCNIVVTQPRRIAAISIANRVCQEREWQQNTVCSFQVGLHRPNSLEDTRLLYCTTGVLLNNLINNKTLTHYTHIVLDEVHERDQNMDFLLIVVRRLLATNSRHVKIILMSATIDAKELSDYFTTTNSIPPVITTNHRRKHSIEKFYRDQLGSIIWNEEDVGHQQVPEINKHGYRAAVKIIVIIDNMERKAAIQSRQSYDEALRYGAVLIFLPGIYEIDTMAENLTCMLENDPNIKVSIVRCFSLMTPENQRDVFNPPPPGFRKIILTTNIAESSITVPDVSYVIDFCLAKVKVTDTASSFSSLRLTWASKANCRQRAGRVGRLRSGRVYRMVNKHFYQREMPEFGIPEMLRLPLQNSVLKAKVLNMGSPVEILALALSPPNLSDIHNTILLLKEVGALYLTVDGIYDPLDGDLTYWGTIMSRLPLDTRQSRLIILGYIFNMLEEAIIIAAGLSTPGLFAHEGGRSQLGDSFWMHYIFSDGSGSDLVAIWRVYLTYLNIVENGHDQESAIRWAKRFHVSLRSLKEIHLLVQELRVRCTHLGLIPFPVNPNQMMDDREKAIMLKVIIAGAFYPNYFTRSKESCADTDRNIYQTISGHDPCRTVYFTNFKPAYMGELYTRRIKELFQEVRIPPENMDVTFQEGSQKVFVTFKQDDWIEGSSKYVPVSGRVQSEVYKAVMMRQNRVERPIHIMNPSAFMSYVQQRGIGDVIEGRWIPPTKPLNVELLALPSVFDKTISGSITCIVNCGKFFFQPQSFEECIRNMSEIFNAPQQLRNYVTNASAIAKGMMVLAKRDSYFQRATVIRPENQSNRQPMFYVRFIDYGNCTLLPMQLMRLMPRELTEQYGDLPPRVFECRLAMVQPSSVVSGNNRWSTAANDMLKTVAQCGLIDIEVYSLFNNVAAVLIHMRDGIINDKLVELMLCRRSDEDYMSRKDHDFRLRRQESARNLSTAQRQQINEEYLRSCQLPQDHDLPPPPLEKCKTVVMLKGPNSPLECTMRSITRVGLSKRVNIDHLSVNALLLDADPQDHHDHLIVAHEIAESRNGQTLTARGTTLMPNVQGFGALMVMLFSPTMQLKCNKEGTSYVSVLGGLGCDPDTNEPYFAEHDVLINLDVNILEDDVILINQIRYYIDSVFFNFKEENNPAVSVNERVSIYTQLRSLINRLLCKDRRYIERNMSNADFEWETNPELPLPNEPFGKRAIFPMHSLTELQEEDTGRLVQLRENCSMLHKWRNFEGTLPHMTCKLCNQLLESVPQLRLHLLTILHRDREKQIDYCNQ
In the case of B2, the binding entry in assay [1] was “binds”.

B3: Ago3 (protein, UniProt Q7PLK0 1-867)
chain: MSGRGNLLSLFNKNAGNMGKSISSKDHEIDSGLDFNNSESSGERLLSSHNIETDLITTLQHVNISVGRGRARLIDTLKTDDHTSNQFITSESKENITKKTKGPESEAIASENGLFFPDLIYGSKGSSVNIYCNYLKLTTDESKGVFNYEVRFFPPIDSVHLRIKYLNDHKDKLGGTKTFDGNTLYLPILLPNKMTVFISKAEDVELQIRILYKKKEEMRNCTQLYNILFDRVMKVLNYVKFDRKQFDPSRPKIIPLAKLEVWPGYVTAVDEYKGGLMLCCDVSHRILCQKTVLEMLVDLYQQNVEHYQESARKMLVGNIVLTRYNNRTYKINDICFDQNPTCQFEIKTGCTSYVEYYKQYHNINIKDVNQPLIYSIKKSRGIPAERENLQFCLIPELCYLTGLRDEVRSDNKLMREIATFTRVSPNQRQMALNKFYENVSNTPAAQEILNSWGLSLTNNSNKISGRQMDIEQIYFSKISVSAGRSAEFSKHAVTNEMLKVVHLSKWIIIHLRNYRQAATSLLDNMKQACESLGMNISNPTMISLDHDRIDAYIQALRRNITMNTQMVVCICHNRRDDRYAAIKKICCSEIPIPSQVINAKTLQNDLKIRSVVQKIVLQMNCKLGGSLWTVKIPFKNVMICGIDSYHDPSNRGNSVAAFVASINSSYSQWYSKAVVQTKREEIVNGLSASFEIALKMYRKRNGKLPTNIIIYRDGIGDGQLYTCLNYEIPQFEMVCGNRIKISYIVVQKRINTRIFSGSGIHLENPLPGTVVDQHITKSNMYDFFLVSQLVRQGTVTPTHYVVLRDDCNYGPDIIQKLSYKLCFLYYNWAGTVRIPACCMYAHKLAYLIGQSIQRDVAEALSEKLFYL
For B3, the binding result in assay [2] is “no binding”.
